For at least one compound, name, drawing or mass did not settle the structure.
Assays:
[1] = cited from earlier work
[2] = Solubility of acetic acid solvate (0.1N hydrogen chloride aqueous solution); assay type: physicochemical
From the text: Sample Sources: the Same as Example 10
Experimental method: refer to Pharmacopoeia of the People's Republic of China. 2005 ed. Part 2. General Notices.

Br.CC(=O)Oc1cc2c(s1)CCN(C(C(=O)C1CC1)c1ccccc1F)C2 (stereo not drawn) [Example X2]
Performance in high humidity and light stability [1]: unsatisfactory | Thermal stability compared to hydrochloride [1]: improved | Solubility (0.1N hydrogen chloride aqueous solution), amount per volume [2]: 1 g/17 ml

Source: patent US8772488B2 (Shanghai Institute of Pharmaceutical Industry, priority 2009, dated 2014)
